Assay results reported in PubChem BioAssay AID238 (DTP/NCI, 2004).
The list does not hold the whole screen: it is rich in T/C values a quarter to a half above the control, in often repeated tests (any T/C) and in doses without a T/C. Further doses and runs are listed elsewhere. T/C: endpoint of the treated group in % of that of the vehicle group. Some doses have a count of surviving animals in place of a T/C: the source holds a T/C of zero for them, seemingly a mark for toxic or unscored doses. Some survivor counts are full or nearly so, which does not show that the dose was tolerated: the source hardly ever lists a survival T/C far under the control, and the zero likely stands for such cases as well. Survivors were counted at the toxicity check, usually on the fifth day, unless a day is given; later deaths do not show. Schedules are NCI's codes, read here as Q, the interval in days (D) or hours (H), X, the number of doses. Some doses were run more than once; the results are listed from low to high. Where survival is the endpoint, the PubChem record calls one and a half times the control and up active, and a quarter to a half above the control has no call in these data; cut-offs in other NCI protocols can differ. Some T/C values are followed by the survivors on the day toxicity was checked, most often the fifth; where none is given, no animal had died by that day.

Test system: CAF1 mice, leiomyosarcoma No.2 ip, survival T/C%
Test: NCI In Vivo Anticancer Drug Screen. Data for tumor model Leiomyosarcoma (No. 2) (intraperitoneal) in CAF1 mice
Conditions: T/C endpoint: mean survival time, schedule: Q01DX010 (ip), higher T/C = longer survival
Protocol: The antitumor activity of compounds was measured in mice bearing transplantable tumors. Survival or tumor size were measured and the results are expressed as the measurement made in the treated group (T) divided by the measurement made in the vehicle treated control group (C). The tumor model used in this assay is Leiomyosarcoma (No. 2) (intraperitoneal) in CAF1 mice

[1] = dose: 60.0 mg/kg/injection, vehicle: saline
[2] = dose: 25.0 mg/kg/injection, vehicle: saline
[3] = dose: 5.0 mg/kg/injection, vehicle: saline
[4] = dose: 10.0 mg/kg/injection, vehicle: saline
[5] = dose: 0.63 mg/kg/injection, vehicle: saline
[6] = dose: 2.5 mg/kg/injection, vehicle: saline
[7] = dose: 80.0 mg/kg/injection, vehicle: saline
[8] = dose: 200.0 mg/kg/injection, vehicle: saline
[9] = dose: 62.5 mg/kg/injection, vehicle: saline
[10] = dose: 125.0 mg/kg/injection, vehicle: saline
[11] = dose: 250.0 mg/kg/injection, vehicle: saline
[12] = dose: 500.0 mg/kg/injection, vehicle: saline
[13] = dose: 20.0 mg/kg/injection, vehicle: saline
[14] = dose: 400.0 mg/kg/injection, vehicle: saline
[15] = dose: 16.0 mg/kg/injection, vehicle: saline
[16] = dose: 50.0 mg/kg/injection, vehicle: saline
[17] = dose: 40.0 mg/kg/injection, vehicle: saline
[18] = dose: 4.0 mg/kg/injection, vehicle: saline
[19] = dose: 100.0 mg/kg/injection, vehicle: saline
[20] = dose: 8.0 mg/kg/injection, vehicle: saline
[21] = dose: 6.25 mg/kg/injection, vehicle: saline
[22] = dose: 120.0 mg/kg/injection, vehicle: saline
[23] = dose: 200.0 mg/kg/injection, vehicle: alkali diluted with saline
[24] = dose: 32.0 mg/kg/injection, vehicle: saline
[25] = dose: 18.0 mg/kg/injection, vehicle: saline

In the case of `Clc1ncnc2nc[nH]c12`, the T/C [1] is reported as 133 % of control.
For `CN(C)c1nc(N(C)C)nc(N(C)C)n1`, the T/C (dose: 150.0 mg/kg/injection, vehicle: saline) was 133 % of control.
For `O=NN(CCCl)C(=O)NCCCl`, the survivor count [2] was 6 of 6.
For `Nc1nc(=S)c2[nH]cnc2[nH]1`, the survivor count [3] was 6 of 6 and the survivor count [4] was 6 of 6.
For `Oc1cc(CN(CCCl)CCCl)c(O)cc1CN(CCCl)CCCl`, the T/C [5] was 125 % of control, the survivor count [5] was 4 of 6 and the T/C [6] was 129 % of control [5 of 6 alive]. For the same compound, the survivor count [6] was 4 of 6 and the survivor count [3] was 5 of 6.
With `OCC1OC(n2cnc3c(=S)nc[nH]c32)C(O)C1O` (configuration not stated) the T/C [7] was 137 % of control and the survivor count (dose: 160.0 mg/kg/injection, vehicle: saline) was 6 of 6.
`CSc1ncnc2nc[nH]c12` was tested, and the survivor count [8] was 0 of 6.
For `OCC1OC(n2cnc3c(Cl)ncnc32)C(O)C1O` (configuration not stated), the survivor count [9] was 6 of 6, the survivor count [10] was 6 of 6 and the survivor count [11] was 6 of 6. For the same compound, the survivor count [12] was 5 of 6 and 6 of 6.
With `Cc1cc(N(CCCl)CCCl)ccc1N=Nc1ccccc1C(=O)O` the T/C [3] was 145 % of control, the T/C [13] was 137 % of control and the survivor count [7] was 6 of 6.
In the case of `C#CCN(C)Cc1ccccc1`, the survivor count [14] is reported as 2 of 6.
With `Nc1nc(SCc2ccccc2)c2[nH]cnc2n1` the T/C [15] was 125 % of control.
In the case of `C[C@H]1C(=O)O[C@@H]2CCN3CC=C(COC(=O)[C@](C)(O)[C@@]1(C)O)[C@H]23`, the T/C [16] is reported as 125 % of control.
In the case of `O=c1[nH]c(=O)n(C2CC(O)C(CO)O2)cc1F` (configuration not stated), the T/C [4] is reported as 141 % of control, the T/C [17] is reported as 127 and 136 % of control and the survivor count [7] is reported as 6 of 6.
In the case of `C=CC(CN1CC1)OC(C)=O` (configuration not stated), the T/C [18] is reported as 136 % of control and the T/C [15] is reported as 140 % of control.
In the case of `NC(Cc1ccc(N(CCCl)CCCl)cc1)C(=O)O` (configuration not stated), the survivor count [13] is reported as 6 of 6.
In the case of `COS(C)(=O)=O`, the survivor count [19] is reported as 6 of 6.
In the case of `CCCSc1ncnc2nc[nH]c12`, the survivor count [11] is reported as 6 of 6.
For `CS(=O)(=O)OCCN(CCOS(C)(=O)=O)c1ccc(N=O)cc1`, the survivor count (dose: 2.0 mg/kg/injection, vehicle: saline) was 0 of 6 and 6 of 6, the survivor count [18] was 6 of 6 and the survivor count [20] was 5 of 6. For the same compound, the survivor count [15] was 0 of 6.
With `O=[n+]1c2c(n([O-])c3ccccc31)-c1cccc3cccc-2c13` the survivor count [2] was 6 of 6, the survivor count [16] was 6 of 6 and the survivor count [19] was 6 of 6. The survivor count [8] was 4 of 6.
`O=c1cnn(C2OC(CO)C(O)C2O)c(=O)[nH]1` (configuration not stated) was tested, and the survivor count (dose: 1600.0 mg/kg/injection, vehicle: saline) was 6 of 6.
In the case of `CS(=O)(=O)OCC(O)C(O)C(O)C(O)COS(C)(=O)=O` (configuration not stated), the T/C [8] is reported as 127 % of control and the T/C [14] is reported as 140 % of control.
With `CS(=O)(=O)OCCCCOS(C)(=O)=O` the survivor count [21] was 6 of 6, the survivor count [2] was 6 of 6 and the survivor count [16] was 6 of 6.
`CN(C)/N=N/c1nc[nH]c1C(N)=O` was tested, and the T/C [19] was 131 % of control and the T/C [8] was 127 % of control.
For `CCn1cnc2c(=S)nc[nH]c21`, the survivor count [10] was 6 of 6.
With `Nc1nc(N)c2nc(CNc3ccc(C(=O)NC(CCC(=O)O)C(=O)O)cc3)cnc2n1` (configuration not stated) the T/C (dose: 0.05 mg/kg/injection, vehicle: other) was 125 % of control and the T/C (dose: 0.2 mg/kg/injection, vehicle: other) was 133 % of control.
For `O=c1c(O)cccc2cc(O)c(O)c(O)c12`, the survivor count [19] was 6 of 6 and the survivor count [8] was 6 of 6.
With `CN(C)c1ccc(Nc2c3ccccc3nc3ccccc23)cc1` the T/C (dose: 36.0 mg/kg/injection, vehicle: saline) was 131 % of control, the T/C (dose: 54.0 mg/kg/injection, vehicle: saline) was 127 % of control and the T/C [7] was 140 % of control. The survivor count [22] was 5 of 6.
`O[C@H](CN1CC1)[C@@H](O)CN1CC1` was tested, and the T/C (dose: 1000.0 micrograms/kg/injection, vehicle: saline) was 141 % of control.
With `Nc1nc2n[nH]nc2c(=O)[nH]1` the T/C (dose: 100.0 mg/kg/injection, vehicle: alkali diluted with saline) was 138 % of control, the T/C [23] was 133 % of control and the survivor count [23] was 0 of 6.
For `C1CN1c1nc(N2CC2)nc(N2CC2)n1`, the T/C (dose: 0.13 mg/kg/injection, vehicle: saline) was 129 % of control, the T/C (dose: 0.25 mg/kg/injection, vehicle: saline) was 125 % of control and the survivor count (dose: 1.0 mg/kg/injection, vehicle: saline) was 6 of 6.
In the case of `CCCCNc1ncnc2c1cnn2C`, the survivor count (dose: 15.6 mg/kg/injection, vehicle: saline) is reported as 6 of 6 and the survivor count [10] is reported as 5 of 6.
`Nc1nc(=S)c2ncn(C3OC(CO)C(O)C3O)c2[nH]1` (configuration not stated) was tested, and the survivor count [18] was 6 of 6, the survivor count [20] was 6 of 6 and the survivor count [15] was 6 of 6.
`CCCCOP(=S)(N1CC1)N1CC1` was tested, and the survivor count [24] was 6 of 6.
For `S=P(N1CCOCC1)(N1CC1)N1CC1`, the survivor count [13] was 6 of 6.
With `C[C@@H]1C[C@@H]([C@H](O)CC2CC(=O)NC(=O)C2)C(=O)[C@@H](C)C1` the T/C [13] was 138 % of control.
In the case of `CC(CCC(C)OS(C)(=O)=O)OS(C)(=O)=O` (configuration not stated), the T/C [15] is reported as 140 % of control and the survivor count [24] is reported as 6 of 6.
In the case of `N#CCSc1ncnc2nc[nH]c12`, the T/C [1] is reported as 127 % of control and the T/C [22] is reported as 137 % of control.
In the case of `CCN(CC)CCNc1ccc(C)c2sc3ccccc3c(=O)c12`, the T/C [16] is reported as 129 % of control, the survivor count [19] is reported as 6 of 6 and the survivor count [8] is reported as 3 of 6.
For `CC(=O)N(C)C`, the survivor count [9] was 6 of 6, the survivor count [11] was 6 of 6 and the survivor count [12] was 6 of 6.
`O=C(Nc1ccc(C2=NCCN2)cc1)c1ccc(C(=O)Nc2ccc(C3=NCCN3)cc2)c([N+](=O)[O-])c1` was tested, and the T/C (dose: 6.0 mg/kg/injection, vehicle: saline) was 140 % of control, the T/C [20] was 135 % of control and the T/C (dose: 12.0 mg/kg/injection, vehicle: saline) was 133 and 139 % of control. The T/C [25] was 128 % of control and the survivor count [25] was 6 of 6.
In the case of `COc1ccc2c(c1OC)C(=O)O[C@@H]2[C@H]1c2c(cc3c(c2OC)OCO3)CCN1C`, the survivor count [9] is reported as 6 of 6, the survivor count [10] is reported as 6 of 6 and the survivor count [11] is reported as 5 of 6.
With `CCCNc1ncnc2[nH]ncc12` the survivor count (dose: 3.13 mg/kg/injection, vehicle: saline) was 6 of 6, the survivor count [21] was 6 of 6 and the survivor count [2] was 6 of 6.
In the case of `N#[N+]c1cnc([O-])[nH]c1=O`, the T/C [6] is reported as 134 % of control and the survivor count [4] is reported as 0 of 6.
In the case of `O=c1cn[nH]c(=O)[nH]1`, the survivor count [9] is reported as 6 of 6 and the survivor count [12] is reported as 5 of 6.
With `CS(=O)(=O)OCCCl` the T/C (dose: 37.5 mg/kg/injection, vehicle: saline) was 125 % of control and the T/C (dose: 75.0 mg/kg/injection, vehicle: saline) was 126 % of control.
With `CN(C)c1ccc(/C=C/c2ccnc3ccccc23)cc1` the survivor count [4] was 6 of 6, the survivor count [13] was 6 of 6 and the survivor count [17] was 6 of 6.
In the case of `CC(=O)NC1=C(N2CC2)C(=O)C(NC(C)=O)=C(N2CC2)C1=O`, the T/C (dose: 125.0 micrograms/kg/injection, vehicle: saline) is reported as 136 % of control.
